Assay results taken from article PMC4180030.
These are yes or no findings as the source states them, for the method shown. For some of these results: In cells and extracts the contact can be indirect. Some binding calls cover weakened binding; strength is not graded here.

Chains of the proteins cited; added tags and fusions are not shown.
UniProt Q8DIQ1: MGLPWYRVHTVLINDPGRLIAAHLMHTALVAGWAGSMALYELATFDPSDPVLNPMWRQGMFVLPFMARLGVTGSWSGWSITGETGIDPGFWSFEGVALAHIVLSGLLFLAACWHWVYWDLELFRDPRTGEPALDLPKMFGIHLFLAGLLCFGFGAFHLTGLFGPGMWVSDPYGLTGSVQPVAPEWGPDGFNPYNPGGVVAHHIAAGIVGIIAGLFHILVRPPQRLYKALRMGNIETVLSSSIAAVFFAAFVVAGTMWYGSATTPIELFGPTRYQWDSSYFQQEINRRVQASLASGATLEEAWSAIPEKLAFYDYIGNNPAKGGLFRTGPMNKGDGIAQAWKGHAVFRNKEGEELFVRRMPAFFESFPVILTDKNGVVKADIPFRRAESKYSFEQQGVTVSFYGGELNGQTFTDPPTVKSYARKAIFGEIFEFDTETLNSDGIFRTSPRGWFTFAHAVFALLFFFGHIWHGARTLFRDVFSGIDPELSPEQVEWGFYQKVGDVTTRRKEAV

How the values were obtained:
[1] = target: His-tagged CP43 of T. elongatus (Thermosynechococcus elongatus) (UniProt Q8DIF8); test: pull-down; beta-DDM-solubilised thylakoid membrane extract of the CP43-His strain bound to cobalt resin (buffer A, pH 6.0, 4 °C, 2 h), four washes, elution with 100 mM imidazole, immunoblotting; non-tagged WT extract and resin lacking Co as controls
[2] = target: His6-tagged CP47 of T. elongatus (Thermosynechococcus elongatus) (UniProt Q8DIQ1); test: co-purification by Ni-affinity and anion-exchange chromatography, immunoblotting; dimeric His-tagged PSII complexes from the CP47-His strain (Nowaczyk et al. 2006, modified), beta-DDM extract on Ni resin, elution with 100 mM histidine, then UNO Q-12 column

Row | binding [1] | binding [2] | Binder
1 | binds | – | Psb27 of T. elongatus (protein, UniProt Q8DG60 22-134) CANVPTGLTGNFREDTLALISSLREAIALPENDPNKKAAQAEARKKLNDFFALYRRDDSLRSLSSFMTMQTALNSLAGHYSSYPNRPLPEKLKARLEQEFKQVELALDREAKS
2 | binds weakly | – | CyanoP (PsbP homologue) of T. elongatus (protein, UniProt Q8DH84 20-183) CSATSGLQAYVDSYDGYEFLYPRGWVQVQVEDPVDVVFHDIIETTENVSVVVNTVASTKSLEELGSPEEVGDRLLRNIIAPSESGRSSALIAATSQKADDKTYYILEYAVTLPGDGNTAQQRHNLSSIAVSRGKVYTLSVSAPEERWPKVEDQFKTIVSSFTVY
3 | binds | binds | CyanoQ (Tll2057) from Thermosynechococcus elongatus (protein, UniProt Q8DHA2 24-152) CGGPSATTPPPPTYSELQITRIQDYLRDIEKNAERFADLEVSVAKGDWQEARNIMRGPLGEMLMDMRALNRNLLAKDQPTPTALTRALTDDFLKIDQGADLDSVTVAQEGFREAEADFKAYLNSLPELS
